Patent US6833383B2, “Methods for treating patients suffering from drug dependencies which lead to plasma melatonin deficiencies” (Neurim Pharmaceuticals (1991) Ltd., priority 1995, dated 2004)

Key:
Benzodiazepine receptors = assay: 3H-flunitrazepam and 3H-RO 15-1788 binding to crude synaptosomal pellets of brains of rats treated for 21 days; assay type: in vivo, rat; details: medulla-pons; 21 days treatment
Experimental: (§1) 20 male rats, maintained on a daily 14 hour light/10 hour darkness schedule, were divided into 4 groups, each consisting of 5 members:
(§2) Group 1 (the control group): rats were injected daily with 200 μl saline intraperitoneally for 21 days and were allowed to drink tap water.
(§3) They also were provided with regular tap water.
(§4) Group 3 (the melatonin group): rats were injected daily with 200 μl saline intraperitoneally. Their only available drinking water contained 0.4% by weight melatonin.
(§5) Each group was allowed food and water ad libitum. After 21 days the treatment was stopped. The animals were decapitated between 6:00 and 7:00 p.m. the next day, their brains were rapidly removed and crude synaptosomal pellets were prepared, and melatonin receptors were assessed using 2-^125I-melatonin, as described by Laudon, M., and N. Zisapel, FEBS Lett. 197:9 (1986). Benzodiazepine receptors were assessed by measuring the binding of radioactive benzodiazepine receptor probes ^3H-flunitrazepam (^3H-FNZ) and ^3H-RO 15-1788 as described by Amiri, Z. et al. Brain Res. 553:155 (1991). Binding parameters were calculated from the equilibrium binding data. […] Binding parameters of the various groups were compared by analysis of variance followed by Student-Newman-Keul's test for multiple comparison. Differences were considered significant if P<0.05.

melatonin receptors = assay: 2-125I-melatonin binding to crude synaptosomal pellets of brains of rats treated for 21 days; assay type: in vivo, rat; details: medulla-pons; 21 days treatment
Experimental: as §1, §2, §3, §4, §5

Compound: CN1C(=O)CN=C(c2ccccc2)c2cc(Cl)ccc21 [diazepam]
- density or apparent affinity of RO-1788 binding compared with the control group (Benzodiazepine receptors): did not alter
- mean density of iodinated melatonin binding sites, lower than the control value (melatonin receptors): 35%
